Measured values: publication PMC3608619
Results are given in words; binding and its absence hold for the method and conditions named. Binding seen in cells or lysates may run through a third protein. Some entries that bind do so weakly or less than the wild type.

The chains behind the UniProt entries cited, without tags or fusion partners.
UniProt P70460: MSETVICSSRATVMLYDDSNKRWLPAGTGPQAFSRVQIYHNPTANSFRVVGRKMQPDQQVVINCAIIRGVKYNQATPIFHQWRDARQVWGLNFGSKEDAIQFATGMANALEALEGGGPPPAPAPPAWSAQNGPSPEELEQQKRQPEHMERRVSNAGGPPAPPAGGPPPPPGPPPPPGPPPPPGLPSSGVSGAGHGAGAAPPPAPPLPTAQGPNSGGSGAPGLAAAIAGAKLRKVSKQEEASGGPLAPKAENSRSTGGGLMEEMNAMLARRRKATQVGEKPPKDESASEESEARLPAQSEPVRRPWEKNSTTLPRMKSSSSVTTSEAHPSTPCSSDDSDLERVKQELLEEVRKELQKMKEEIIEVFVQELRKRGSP
UniProt Q8BKX1: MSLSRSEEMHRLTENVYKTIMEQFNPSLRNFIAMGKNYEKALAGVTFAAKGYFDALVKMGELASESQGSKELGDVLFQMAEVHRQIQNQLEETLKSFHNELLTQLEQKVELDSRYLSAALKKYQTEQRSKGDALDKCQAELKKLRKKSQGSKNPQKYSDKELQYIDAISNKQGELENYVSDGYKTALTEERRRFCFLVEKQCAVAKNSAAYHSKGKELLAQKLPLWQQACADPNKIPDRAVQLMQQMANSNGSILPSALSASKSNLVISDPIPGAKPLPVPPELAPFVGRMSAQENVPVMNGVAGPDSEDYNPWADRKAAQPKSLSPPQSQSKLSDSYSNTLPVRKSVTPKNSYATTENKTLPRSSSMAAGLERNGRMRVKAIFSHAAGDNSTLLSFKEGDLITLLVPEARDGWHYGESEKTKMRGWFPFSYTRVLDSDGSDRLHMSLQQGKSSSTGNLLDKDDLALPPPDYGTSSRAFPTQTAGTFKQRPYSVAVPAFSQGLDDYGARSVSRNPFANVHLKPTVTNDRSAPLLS

Target: VASP (mouse (endogenous in NIH-Src)) (UniProt P70460)
Assay: co-IP; endogenous proteins; NIH-Src cell lysates precipitated with anti-VASP antibody on protein A-agarose beads or control IgG; immunoblot; lysis in RIPA buffer or cell lysis buffer (which one is not told)

Substance: IRSp53 (from UniProt Q8BKX1 1-535)
- binding: binds
